Measured values: US20230071019A1
These are yes or no findings as the source states them, for the method shown. Some binding calls cover weakened binding; strength is not graded here.

Sequences of proteins named here, by UniProt entry; tags and fusion partners are left off. Residues count along the entry.
UniProt P02769, residues 25-607: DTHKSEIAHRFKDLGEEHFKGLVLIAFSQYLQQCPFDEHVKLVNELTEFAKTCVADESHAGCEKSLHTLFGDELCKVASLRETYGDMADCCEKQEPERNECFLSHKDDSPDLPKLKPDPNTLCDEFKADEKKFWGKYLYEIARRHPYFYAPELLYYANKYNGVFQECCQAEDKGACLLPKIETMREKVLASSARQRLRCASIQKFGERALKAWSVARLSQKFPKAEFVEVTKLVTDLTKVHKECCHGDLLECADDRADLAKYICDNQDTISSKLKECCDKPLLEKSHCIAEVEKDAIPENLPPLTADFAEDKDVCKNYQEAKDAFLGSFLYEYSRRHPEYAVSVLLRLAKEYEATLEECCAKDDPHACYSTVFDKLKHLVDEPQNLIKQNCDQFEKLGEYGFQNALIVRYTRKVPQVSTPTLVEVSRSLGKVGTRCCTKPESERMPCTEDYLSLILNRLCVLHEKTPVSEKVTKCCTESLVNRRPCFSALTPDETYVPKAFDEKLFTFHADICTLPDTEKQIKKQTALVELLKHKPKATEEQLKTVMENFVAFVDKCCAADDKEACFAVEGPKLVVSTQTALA

Target: exatecan conjugated BSA (bovine) (UniProt P02769)
Assay: SPR, exatecan-conjugated BSA on the chip

B1: Anti-Exatecan sdAb TF7 clone (VHH)
VHH: QVQLQESGGGLAQPGGSLRVSCATSGFTFSSNYYISWVRQAPGRGLEWVSAINTGDGSTYYAHSVKGRFTISRDNAKNTLYLQMNSLKPEDTALYYCARSSLEGRIEKPYDYWGQGTQVTVSS
- binding: binds
